Residue numbers refer to the chain shown, from its start. These are yes or no findings as the source states them, for the method shown. Binding seen in cells or lysates may run through a third protein. Some entries that bind do so weakly or less than the wild type. Where a sequence is shown, tags or fusion partners need not be part of it.

Amino acid sequences for entries named in this document (tags omitted). A change or cut given only in a name is not applied to a line headed by its entry.
UniProt Q9HBZ2: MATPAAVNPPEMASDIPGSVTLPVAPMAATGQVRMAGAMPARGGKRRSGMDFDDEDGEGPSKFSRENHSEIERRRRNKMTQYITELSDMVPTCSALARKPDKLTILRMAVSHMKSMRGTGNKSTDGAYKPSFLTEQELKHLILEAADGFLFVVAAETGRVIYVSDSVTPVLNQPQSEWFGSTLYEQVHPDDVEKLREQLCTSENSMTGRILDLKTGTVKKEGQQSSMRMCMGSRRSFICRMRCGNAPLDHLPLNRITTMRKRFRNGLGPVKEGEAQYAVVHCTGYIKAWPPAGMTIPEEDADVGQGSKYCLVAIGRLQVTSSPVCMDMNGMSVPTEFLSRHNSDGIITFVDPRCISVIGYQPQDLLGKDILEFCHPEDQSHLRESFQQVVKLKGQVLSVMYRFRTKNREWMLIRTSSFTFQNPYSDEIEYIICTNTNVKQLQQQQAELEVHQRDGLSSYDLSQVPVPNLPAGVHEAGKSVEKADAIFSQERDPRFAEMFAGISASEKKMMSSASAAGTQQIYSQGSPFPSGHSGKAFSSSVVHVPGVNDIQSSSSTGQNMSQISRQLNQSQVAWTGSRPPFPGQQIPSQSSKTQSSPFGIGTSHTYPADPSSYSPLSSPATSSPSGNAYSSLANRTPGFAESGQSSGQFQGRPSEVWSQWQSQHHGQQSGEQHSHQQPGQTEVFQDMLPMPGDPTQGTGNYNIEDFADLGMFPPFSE

In experiment [1] the target is T1, WT NPAS4-mycFlag (human Neuronal PAS factor 4) (human) (UniProt Q8IUM7).
T1 sequence: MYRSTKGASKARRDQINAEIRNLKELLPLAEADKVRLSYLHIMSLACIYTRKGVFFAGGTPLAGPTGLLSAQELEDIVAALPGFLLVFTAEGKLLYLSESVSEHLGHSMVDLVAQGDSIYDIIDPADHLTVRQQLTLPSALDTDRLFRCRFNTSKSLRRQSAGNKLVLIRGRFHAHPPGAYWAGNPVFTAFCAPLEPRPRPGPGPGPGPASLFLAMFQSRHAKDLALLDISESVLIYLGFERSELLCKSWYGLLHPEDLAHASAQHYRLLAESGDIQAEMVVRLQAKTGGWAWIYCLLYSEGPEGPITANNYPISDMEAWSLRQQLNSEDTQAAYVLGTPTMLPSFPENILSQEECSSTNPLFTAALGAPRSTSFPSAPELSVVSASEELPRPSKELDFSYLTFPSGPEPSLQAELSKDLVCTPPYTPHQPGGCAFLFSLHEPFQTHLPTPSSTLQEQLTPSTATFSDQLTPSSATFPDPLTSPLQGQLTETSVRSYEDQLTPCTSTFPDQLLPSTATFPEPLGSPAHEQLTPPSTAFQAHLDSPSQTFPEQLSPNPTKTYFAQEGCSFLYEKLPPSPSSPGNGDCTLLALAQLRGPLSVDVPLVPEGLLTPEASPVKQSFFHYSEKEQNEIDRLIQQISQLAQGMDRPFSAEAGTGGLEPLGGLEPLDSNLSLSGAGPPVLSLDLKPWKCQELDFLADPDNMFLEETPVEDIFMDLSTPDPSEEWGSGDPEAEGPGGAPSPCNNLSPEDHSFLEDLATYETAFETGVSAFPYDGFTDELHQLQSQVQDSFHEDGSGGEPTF
In words: co-IP; data not shown; co-immunoprecipitation of ARNT2.R107H with NPAS4; no details given.

Experiment [2] concerns the target T1, WT NPAS4-mycFlag (human Neuronal PAS factor 4) (human). Put plainly: co-IP; HEK293T cells cotransfected with NPAS4-mycFlag and ARNT2 expression plasmids; whole cell extract incubated with Flag M2 resin in IP buffer (20 mM HEPES pH 8.0, 150 mM NaCl, 150 mM KCl); ARNT2 detected by anti-ARNT2 immunoblot. For orientation: In western blotting, separated proteins are transferred to a membrane and probed.

For experiment [3] the target is unchanged. In words: co-IP; HEK293T cells transfected with NPAS4-mycFlag only; Flag M2 resin; endogenous ARNT2 detected by anti-ARNT2 immunoblot; band intensity quantified in 3 independent experiments.
Experiment [4] deals with T2, NPAS4.F147A-mycFlag (human) (UniProt Q8IUM7).
T2 sequence: T1 sequence with F147A
Described as above.

Experiment [5] deals with T3, NPAS4.E257K-mycFlag (human) (UniProt Q8IUM7).
T3 sequence: T1 sequence with E257K
Described as above.

Turning to ARNT2.R107H (from UniProt Q9HBZ2 1-717), the binding result in experiment [1] is reported as “binds”.

Turning to “ARNT2, overexpressed (human Aryl hydrocarbon Receptor Nuclear Translator 2) (from UniProt Q9HBZ2 1-717)”, the binding entry in experiment [2] is “binds”. On to “endogenous ARNT2 (HEK293T) (from UniProt Q9HBZ2 1-717)”, for which the binding result in experiment [3], in experiment [4] and in experiment [5] was “binds” each time.

The values are drawn from paper PMC3894988, “Human Variants in the Neuronal Basic Helix-Loop-Helix/Per-Arnt-Sim (bHLH/PAS) Transcription Factor Complex NPAS4/ARNT2 Disrupt Function” (PLoS ONE, 2014).
